Measurements from paper doi:10.1101/2022.05.30.494040.
Results are given in words; binding and its absence hold for the method and conditions named. Some binding calls cover weakened binding; strength is not graded here.

By UniProt entry, the sequences of proteins in these tests, tags left out. Residues count along the entry.
UniProt P32856, whole entry: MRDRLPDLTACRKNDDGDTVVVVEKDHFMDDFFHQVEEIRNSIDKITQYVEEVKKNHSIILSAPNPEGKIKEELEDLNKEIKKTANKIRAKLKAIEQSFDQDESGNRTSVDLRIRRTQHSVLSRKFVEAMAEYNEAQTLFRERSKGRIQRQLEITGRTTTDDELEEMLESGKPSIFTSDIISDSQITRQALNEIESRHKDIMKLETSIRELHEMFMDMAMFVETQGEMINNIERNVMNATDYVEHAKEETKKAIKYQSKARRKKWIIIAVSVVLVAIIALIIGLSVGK
UniProt Q12846, whole entry: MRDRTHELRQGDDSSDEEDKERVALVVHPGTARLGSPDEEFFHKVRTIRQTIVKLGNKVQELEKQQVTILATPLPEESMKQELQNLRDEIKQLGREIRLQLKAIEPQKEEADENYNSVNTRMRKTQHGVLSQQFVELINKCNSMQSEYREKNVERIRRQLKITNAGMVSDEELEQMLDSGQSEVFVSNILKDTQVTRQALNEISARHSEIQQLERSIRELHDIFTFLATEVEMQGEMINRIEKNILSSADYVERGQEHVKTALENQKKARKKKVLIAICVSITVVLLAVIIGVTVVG
UniProt Q8R570, 115-412: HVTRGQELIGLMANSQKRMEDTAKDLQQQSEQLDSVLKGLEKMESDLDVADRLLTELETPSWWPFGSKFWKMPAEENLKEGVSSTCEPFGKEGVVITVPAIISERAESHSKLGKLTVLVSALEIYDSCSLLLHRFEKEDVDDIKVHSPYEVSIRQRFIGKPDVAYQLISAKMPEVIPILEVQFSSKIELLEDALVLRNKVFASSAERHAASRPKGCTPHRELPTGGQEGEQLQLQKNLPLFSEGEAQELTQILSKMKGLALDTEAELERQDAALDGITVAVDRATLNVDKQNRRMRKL

Assays:
Experiment in all cases: co-reconstitution into liposomes with flotation on a density gradient
[1] = target: T1, full-length Stx3 (UniProt Q13277)
T1 sequence: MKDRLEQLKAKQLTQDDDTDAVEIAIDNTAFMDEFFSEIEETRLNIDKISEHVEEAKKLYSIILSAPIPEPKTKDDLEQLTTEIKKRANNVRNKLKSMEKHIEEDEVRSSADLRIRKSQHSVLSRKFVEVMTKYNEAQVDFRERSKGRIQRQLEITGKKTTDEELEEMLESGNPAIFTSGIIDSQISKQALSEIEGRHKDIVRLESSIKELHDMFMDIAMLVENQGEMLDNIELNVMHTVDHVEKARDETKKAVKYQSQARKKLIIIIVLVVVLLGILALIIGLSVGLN

[2] = target: full-length Stx2 (human) (UniProt P32856)
[3] = target: full-length Stx4 (UniProt Q12846)

Measured: binding

SNAP47_(115-412) (from UniProt Q8R570 115-412) (domain or fragment)
binds: [1] | [2] | [3]

B1: full-length SNAP23 (protein, UniProt O00161 1-211)
chain: MDNLSSEEIQQRAHQITDESLESTRRILGLAIESQDAGIKTITMLDEQKEQLNRIEEGLDQINKDMRETEKTLTELNKCCGLCVCPCNRTKNFESGKAYKTTWGDGGENSPCNVVSKQPGPVTNGQLQQPTTGAASGGYIKRITNDAREDEMEENLTQVGSILGNLKDMALNIGNEIDAQNPQIKRITDKADTNRDRIDIANARAKKLIDS
binds: [1] | [2] | [3]
